Source: PubChem BioAssay AID743121 (NCATS, 2013)

Aim: 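Knock-downs that sensitise breast cancer cells to camptothecin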 (primary screen)
Cells: MDA-MB-231 cells, a human breast cancer line
Reagent: single siRNA against human genes, 20 nM siRNA (0.8 pmol per well)
Duration: 120 h (drug added 48 h after transfection, read 72 h later)
Conditions: camptothecin 20 nM (about EC30) for 72 h; vehicle 0.1% DMSO in parallel plates
Measured: 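CellTiter-Glo ATP signal, scaled to control siRNA as percent viability; sensitisation given as log2 of untreated divided by camptothecin-treated viability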
Direction: log2 vehicle/camptothecin viability: higher = stronger sensitisation to camptothecin; viability with camptothecin and viability without drug: higher = more viable cells
Active means: 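Each gene scored by redundant siRNA activity (RSA) over its individual siRNA ratios; a gene is called active at p < 0.001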
Here is an unselected part of about 26,000 deposited reagents. In the full data, 167 (0.63%) were called active. 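Calls are per gene from RSA p-values that are not deposited; an individual active-marked siRNA can sensitise only weakly.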 Reagents against one gene are numbered here. Reagent sequences are not shown.

target gene | siRNA no. | log2 vehicle/camptothecin viability | viability with camptothecin (% of control) | viability without drug (% of control) | Outcome
OR5P2 | 1 | -0.467 | 94 | 68 | inactive
OR5P2 | 2 | -0.0311 | 39.7 | 38.9 | inactive
OR5P2 | 3 | -0.328 | 116 | 92.6 | inactive
OR5P2 | 4 | -0.25 | 83.9 | 70.6 | inactive
PAQR6 | 1 | -0.00769 | 100 | 99.9 | inactive
PAQR6 | 2 | 0.336 | 54.3 | 68.6 | inactive
PAQR6 | 3 | -0.683 | 26.9 | 16.7 | inactive
PAQR6 | 4 | -0.332 | 97.5 | 77.5 | inactive
FBXL5 | 1 | -0.2 | 36.2 | 31.5 | inactive
FBXL5 | 2 | -0.239 | 55.4 | 46.9 | inactive
FBXL5 | 3 | -0.0128 | 62.4 | 61.9 | inactive
MUTYH | 1 | -0.31 | 50.2 | 40.5 | inactive
MUTYH | 2 | -0.32 | 88.1 | 70.6 | inactive
MUTYH | 3 | -0.548 | 79.8 | 54.6 | inactive
MUTYH | 4 | -0.33 | 58.2 | 46.3 | inactive
ACTN1 | 1 | 0.24 | 48.2 | 57 | inactive
ACTN1 | 2 | -0.0687 | 84.1 | 80.2 | inactive
ACTN1 | 3 | 0.184 | 31.4 | 35.7 | inactive
ACTN1 | 4 | 1.01 | 4.11 | 8.29 | inactive
GTF2H2 | 1 | -0.116 | 107 | 98.3 | inactive
GTF2H2 | 2 | -0.363 | 45.3 | 35.2 | inactive
GTF2H2 | 3 | -0.253 | 84.1 | 70.6 | inactive
PRSS1 | 1 | -0.344 | 64.1 | 50.5 | inactive
PRSS1 | 2 | 0.0865 | 85.9 | 91.2 | inactive
PRSS1 | 3 | -0.356 | 116 | 90.7 | inactive
PRSS1 | 4 | -0.155 | 112 | 101 | inactive
PRSS1 | 5 | 0.433 | 55.6 | 75.1 | inactive
SALL1 | 1 | 0.0457 | 93.3 | 96.3 | inactive
SALL1 | 2 | -0.331 | 76.7 | 61 | inactive
SALL1 | 3 | -0.32 | 95.2 | 76.3 | inactive
SALL1 | 4 | -0.672 | 66.5 | 41.7 | inactive
PPP1R14C | 1 | 0.191 | 64.4 | 73.5 | inactive
PPP1R14C | 2 | -0.139 | 68.5 | 62.1 | inactive
PPP1R14C | 3 | -0.57 | 81 | 54.6 | inactive
PPP1R14C | 4 | -0.0747 | 92.6 | 88 | inactive
PZP | 1 | -0.381 | 26.7 | 20.5 | inactive
PZP | 2 | 0.0269 | 73.5 | 74.9 | inactive
PZP | 3 | -0.106 | 98.6 | 91.6 | inactive

Single entries from the list:
Under “Outcome”, MUTYH #4 is entered as inactive
For “log2 vehicle/camptothecin viability”, PZP #1 has -0.381
OR5P2 #3, viability without drug (% of control): 92.6
Result of MUTYH #1 under “viability with camptothecin (% of control)”: 50.2
FBXL5 #1, log2 vehicle/camptothecin viability: -0.2
Value of PRSS1 #2 in “log2 vehicle/camptothecin viability”: 0.0865

Continued:
target gene | siRNA no. | log2 vehicle/camptothecin viability | viability with camptothecin (% of control) | viability without drug (% of control) | Outcome
GPR161 | 1 | 0.125 | 62.9 | 68.6 | inactive
GPR161 | 2 | -0.359 | 92.5 | 72.1 | inactive
GPR161 | 3 | -0.126 | 72.2 | 66.2 | inactive
GPR161 | 4 | 0.0633 | 86.6 | 90.5 | inactive
HAS2 | 1 | -0.185 | 89.4 | 78.6 | inactive
HAS2 | 2 | -0.468 | 77.7 | 56.2 | inactive
HAS2 | 3 | -0.485 | 125 | 89.7 | inactive
MAPK8IP3 | 1 | -0.472 | 107 | 77.3 | inactive
MAPK8IP3 | 2 | 0.335 | 26.2 | 33.1 | inactive
MAPK8IP3 | 3 | 0.011 | 31.7 | 31.9 | inactive
MAPK8IP3 | 4 | -0.36 | 57.9 | 45.1 | inactive
C8A | 1 | -0.345 | 116 | 91.6 | inactive
C8A | 2 | -0.00648 | 75.6 | 75.2 | inactive
C8A | 3 | 0.038 | 52.4 | 53.8 | inactive
C8A | 4 | 0.368 | 56.7 | 73.2 | inactive
PIMREG | 1 | -0.243 | 91.6 | 77.4 | inactive
PIMREG | 2 | -0.456 | 101 | 73.5 | inactive
PIMREG | 3 | -0.385 | 99.6 | 76.2 | inactive
PIMREG | 4 | -0.186 | 51.5 | 45.3 | inactive
GLIPR1L1 | 1 | 0.0852 | 114 | 121 | inactive
GLIPR1L1 | 2 | -0.156 | 50 | 44.9 | inactive
GLIPR1L1 | 3 | 0.279 | 46.4 | 56.3 | inactive
GLIPR1L1 | 4 | 0.354 | 37.6 | 48.1 | inactive
BIRC6 | 1 | -0.103 | 94.8 | 88.3 | inactive
BIRC6 | 2 | -0.0247 | 102 | 101 | inactive
BIRC6 | 3 | -0.196 | 96.4 | 84.1 | inactive
BIRC6 | 4 | -0.612 | 101 | 66.4 | inactive
PDE4C | 1 | -0.337 | 83.3 | 65.9 | inactive
PDE4C | 2 | -0.0231 | 52.1 | 51.2 | inactive
PDE4C | 3 | -0.00731 | 61.8 | 61.5 | inactive
PDE4C | 4 | 0.201 | 53.5 | 61.5 | inactive
